PubChem BioAssay AID652259 | Drosophila RNAi Screening Center – 2013
Screen: 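Knock-downs that push a Wingless-driven reporter up or down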 (primary screen). System: Drosophila clone 8 imaginal disc epithelial cells. Knock-down reagent: long dsRNA against Drosophila genes. Conditions: pathway stimulated by co-transfected Wingless expression plasmid. Detection: 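Firefly luciferase from a tcf-site Wingless reporter, measured alongside co-transfected Renilla luciferase that tracks transfection; pathway stimulated by a Wingless plasmid; the firefly-to-Renilla ratio is not deposited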. Reading the numbers: firefly reporter light: higher = more Wg reporter light, before normalisation; Renilla control light: higher = more transfected or surviving cells. Hit rule: 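Strong candidates differ from their plate mean by at least two out of four per-plate statistical tests; weak candidates meet just one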. Meaning of the calls: active = candidate regulator (raises or lowers reporter); inactive = not a candidate.
In all, the deposit lists about 22,000 reagents; below is an unselected part of those with a known target gene and a result. Of all reagents, 233 (1.1%) are marked active. 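Light values are raw, unnormalised plate reads; the ratio scores behind the reporter calls were not deposited.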 The numbers tell different reagents against one gene apart. A plus sign joins genes that one reagent is predicted to hit. The record does not give: the amount of reagent, the time to read-out, the dose of the treatment.

| Gene | reagent | firefly reporter light, replicate 1 | firefly reporter light, replicate 2 | Renilla control light, replicate 1 | Renilla control light, replicate 2 | activity call |
| --- | --- | --- | --- | --- | --- | --- |
| Crtp | 1 | 3632 | 9561 | 955 | 3062 | inactive |
| CG33506 | 1 | 15608 | – | 4802 | – | inactive |
| aux | 1 | 7867 | – | 2817 | – | inactive |
| CG3546 | 1 | 10637 | – | 10133 | – | inactive |
| Pcyt2 | 1 | 19832 | – | 6784 | – | inactive |
| trbd | 1 | 5175 | – | 2681 | – | inactive |
| CG16820 | 1 | 15125 | – | 3520 | – | inactive |
| CG12849 | 1 | 3364 | 8064 | 770 | 2592 | inactive |
| Tis11 | 1 | 2179 | 7936 | 454 | 1408 | inactive |

In a second layout: results already given.
Gene | reagent | firefly reporter light, replicate 1 | firefly reporter light, replicate 2 | Renilla control light, replicate 1 | Renilla control light, replicate 2 | activity call
CG3546 | 1 | 10637 | – | 10133 | – | inactive
Pcyt2 | 1 | 19832 | – | 6784 | – | inactive
trbd | 1 | 5175 | – | 2681 | – | inactive
CG16820 | 1 | 15125 | – | 3520 | – | inactive

The listing continues.
| Gene | reagent | firefly reporter light, replicate 1 | firefly reporter light, replicate 2 | Renilla control light, replicate 1 | Renilla control light, replicate 2 | activity call |
| --- | --- | --- | --- | --- | --- | --- |
| CG13101 | 1 | 13785 | – | 4152 | – | inactive |
| Spn53F | 1 | 5576 | – | 2304 | – | inactive |
| CG8243 | 1 | 3648 | 14075 | 1731 | 5880 | inactive |
| CG8243 | 2 | 4.31e5 | 4.47e5 | 1.69e5 | 1.64e5 | inactive |
| MED22 | 1 | 17130 | – | 11671 | – | inactive |
| Nubp2 | 1 | 19830 | – | 5900 | – | inactive |
| Sras | 1 | 1218 | 5347 | 1408 | 3075 | inactive |
| Gr92a | 1 | 3.78e5 | 4.11e5 | 1.51e5 | 1.37e5 | inactive |
| RhoGAP71E | 1 | 4012 | – | 1685 | – | inactive |
| RhoGAP71E | 2 | 5928 | – | 1337 | – | inactive |
| RhoGAP71E | 3 | 13696 | – | 3072 | – | inactive |
| CG40005 (retired record) + cta | 1 | 20042 | – | 12043 | – | inactive |
| cyr | 1 | 19760 | – | 10264 | – | inactive |
| cyr | 2 | 20029 | – | 9032 | – | inactive |
| cyr | 3 | 19961 | – | 7921 | – | inactive |
| Ugt49B1 | 1 | 1488 | 6525 | 646 | 2301 | inactive |
| Pdha | 1 | 23568 | – | 9529 | – | inactive |
| Dh44-R2 | 1 | 6842 | – | 2603 | – | inactive |
| Dh44-R2 | 2 | 9152 | – | 2272 | – | inactive |
| Slbp | 1 | 7076 | – | 2464 | – | inactive |
